From article PMC7666153, “The phosphorylated regulator of chemotaxis is crucial throughout biofilm biogenesis in Shewanella oneidensis” (NPJ Biofilms and Microbiomes, 2020)
Results are given in words; binding and its absence hold for the method and conditions named. Some entries that bind do so weakly or less than the wild type.

Protein sequences, listed by entry. Tags and fused reporters are not part of them.
UniProt Q51455: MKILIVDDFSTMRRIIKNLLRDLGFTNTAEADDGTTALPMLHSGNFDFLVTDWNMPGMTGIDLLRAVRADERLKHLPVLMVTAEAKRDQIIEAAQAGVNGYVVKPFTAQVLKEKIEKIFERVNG

Target: T25-MxdA (S. oneidensis) (UniProt Q8E9T3)
Assay: two-hybrid

Row | Molecule | binding
1 | T18-CheYPA (from UniProt Q51455 1-124) | no binding
2 | T18-CheYEC (protein, UniProt P0AE67 1-129) MADKELKFLVVDDFSTMRRIVRNLLKELGFNNVEEAEDGVDALNKLQAGGYGFVISDWNMPNMDGLELLKTIRADGAMSALPVLMVTAEAKKENIIAAAQAGASGYVVKPFTAATLEEKLNKIFEKLGM | binds
